Results are given in words; binding and its absence hold for the method and conditions named. Binding seen in cells or lysates may run through a third protein. Some binding calls cover weakened binding; strength is not graded here.
Molecular target: small-conductance calcium-activated potassium channel subtype 2 (mouse (endogenous in BLA tissue)) (UniProt P58390)
Assay: co-IP; mouse BLA lysed in IP lysis buffer; supernatant incubated with anti-SK2 antibody overnight at 4°C, Protein A/G agarose beads 3 h, washed three times; blot probed with anti-MPP2 antibody; IgG as control

Amino acid sequences for entries named in this document (tags omitted). Residues count along the entry.
UniProt P58390, residues 266-839: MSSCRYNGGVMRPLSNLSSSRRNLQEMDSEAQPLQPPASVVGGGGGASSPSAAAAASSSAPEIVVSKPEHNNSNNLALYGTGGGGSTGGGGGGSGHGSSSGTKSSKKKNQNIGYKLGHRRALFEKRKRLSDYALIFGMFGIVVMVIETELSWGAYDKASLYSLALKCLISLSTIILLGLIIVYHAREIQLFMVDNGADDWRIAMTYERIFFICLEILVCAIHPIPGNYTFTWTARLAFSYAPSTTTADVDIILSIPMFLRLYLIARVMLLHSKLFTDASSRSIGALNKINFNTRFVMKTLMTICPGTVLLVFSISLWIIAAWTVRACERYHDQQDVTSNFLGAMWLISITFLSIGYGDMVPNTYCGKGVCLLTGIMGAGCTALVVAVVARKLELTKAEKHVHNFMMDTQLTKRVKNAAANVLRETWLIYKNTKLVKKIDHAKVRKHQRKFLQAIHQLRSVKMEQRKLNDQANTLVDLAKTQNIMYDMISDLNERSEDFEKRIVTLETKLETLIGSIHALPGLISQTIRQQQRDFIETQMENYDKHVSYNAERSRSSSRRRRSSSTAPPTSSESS

B1: Membrane palmitoylated protein 2 (protein, UniProt Q9WV34 1-552)
chain: MPVAATNSESAMQQVLDNLGSLPNATGAAELDLIFLRGIMESPIVRSLAKAHERLEETKLEAVRDNNLELVQEILRDLAELAEQSSTAAELARILQEPHFQSLLETHDSVASKTYETPPPSPGLDPTFSNQPVPPDAVRMVGIRKTAGEHLGVTFRVEGGELVIARILHGGMVAQQGLLHVGDIIKEVNGQPVGSDPRALQELLRSASGSVILKILPSYQEPHLPRQVFVKCHFDYDPARDSLSPCKEAGLRFNAGDLLQIVNQDDANWWQACHVEGGSAGLIPSQLLEEKRKAFVKRDLELTPTSGTLCGSLSGKKKKRMMYLTTKNAEFDRHELLIYEEVARMPPFRRKTLVLIGAQGVGRRSLKNKLILWDPDRYGTTVPYTSRRPKDSEREGQGYSFVSRGEMEADIRAGRYLEHGEYEGNLYGTRIDSIRGVVASGKVCVLDVNPQAVKVLRTAEFVPYVVFIEAPDYETLRAMNRAALESGVSTKQLTEADLRRTVEESSRIQRGYGHYFDLSLVNSNLERTFRELQTAMEKLRTEPQWVPVSWVY
In the case of B1, the binding is reported as “binds”.

— publication PMC10805397
